Test results from publication PMC8501799, “Constitutive signal bias mediated by the human GHRHR splice variant 1” (Proceedings of the National Academy of Sciences of the …, 2021).
Results are given in words; binding and its absence hold for the method and conditions named. Binding can be weak; no strength is given.

Target: human GHRHR splice variant 1 (SV1), cryo-EM construct SV1-15AA-LgBiT (human)
Assay: cryo-EM structure; GHRH–SV1–Gs–Nb35 complex; SV1-15AA-LgBiT, Gαs, Gβ1-15AA-peptide 86 and Gγ2 co-expressed in Sf9; complex formed in the cell lysate with 10 μg/mL Nb35, apyrase and 20 μM GHRH, solubilised in LMNG/CHS, purified on amylose resin, TEV cleavage and Superdex 200; NanoBiT tether between SV1 and Gβ1; global resolution 3.3 Å; both purified

Binder: YADAIFTNSYRKVLGQLSARKLLQDIMSRQQGESNQERGARARL (peptide, UniProt P01286 32-75) [growth hormone-releasing hormone (GHRH)]
- binding: binds
